Laboratory results published in paper PMC10927090, “Plasmodium falciparum contains functional SCF and CRL4 ubiquitin E3 ligases, and CRL4 is critical for cell division and membrane integrity” (PLOS Pathogens, 2024).
These are yes or no findings as the source states them, for the method shown. For some assays here: Binding seen in cells or lysates may run through a third protein. Some results given as binding are weak or reduced against the parent protein; the word gives no strength. Where a sequence is shown, tags or fusion partners need not be part of it.

Amino acid sequences for entries named in this document (tags omitted).
UniProt C6KTD3: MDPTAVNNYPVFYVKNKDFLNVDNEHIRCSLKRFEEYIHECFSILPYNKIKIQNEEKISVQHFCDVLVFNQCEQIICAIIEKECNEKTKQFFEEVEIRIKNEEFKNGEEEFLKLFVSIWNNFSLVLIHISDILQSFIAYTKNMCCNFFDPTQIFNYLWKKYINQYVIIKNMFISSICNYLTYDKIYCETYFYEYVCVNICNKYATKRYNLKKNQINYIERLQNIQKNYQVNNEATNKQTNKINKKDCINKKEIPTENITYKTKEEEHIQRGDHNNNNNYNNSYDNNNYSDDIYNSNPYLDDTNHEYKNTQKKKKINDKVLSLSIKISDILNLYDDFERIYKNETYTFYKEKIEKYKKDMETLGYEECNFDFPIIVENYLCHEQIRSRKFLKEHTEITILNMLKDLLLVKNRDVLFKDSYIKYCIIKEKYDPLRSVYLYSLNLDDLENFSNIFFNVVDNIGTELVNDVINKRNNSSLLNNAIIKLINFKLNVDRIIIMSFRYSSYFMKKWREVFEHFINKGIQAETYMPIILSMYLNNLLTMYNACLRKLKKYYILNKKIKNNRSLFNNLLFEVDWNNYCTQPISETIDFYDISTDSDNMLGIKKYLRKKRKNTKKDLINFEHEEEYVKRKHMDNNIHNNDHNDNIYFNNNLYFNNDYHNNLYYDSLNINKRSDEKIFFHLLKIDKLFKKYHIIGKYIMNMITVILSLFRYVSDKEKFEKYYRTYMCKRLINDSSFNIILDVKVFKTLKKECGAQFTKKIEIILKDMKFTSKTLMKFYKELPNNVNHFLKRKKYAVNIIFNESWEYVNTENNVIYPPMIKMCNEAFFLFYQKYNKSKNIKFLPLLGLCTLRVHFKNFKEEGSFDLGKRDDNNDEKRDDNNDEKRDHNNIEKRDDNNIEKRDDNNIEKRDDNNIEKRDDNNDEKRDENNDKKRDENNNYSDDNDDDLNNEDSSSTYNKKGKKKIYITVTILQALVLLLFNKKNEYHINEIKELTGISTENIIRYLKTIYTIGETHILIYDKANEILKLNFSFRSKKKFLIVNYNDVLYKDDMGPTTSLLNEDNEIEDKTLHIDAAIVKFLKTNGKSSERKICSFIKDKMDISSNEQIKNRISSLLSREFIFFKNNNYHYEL

T1: PfRbx1 with C-terminal Myc-tag (P. falciparum) (UniProt O77367)
T1 sequence: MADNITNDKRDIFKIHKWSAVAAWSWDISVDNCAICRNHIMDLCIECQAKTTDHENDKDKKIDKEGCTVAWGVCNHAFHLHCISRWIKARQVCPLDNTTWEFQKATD

T2: 6×His-tagged PfSkp1 (P. falciparum), Q8ID38
T2 chain: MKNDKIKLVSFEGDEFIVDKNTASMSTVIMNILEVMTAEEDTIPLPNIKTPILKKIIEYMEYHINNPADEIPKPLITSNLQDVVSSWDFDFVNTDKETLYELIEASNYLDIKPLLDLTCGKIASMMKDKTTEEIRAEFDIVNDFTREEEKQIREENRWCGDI

B1: 6×His/SUMO-tagged PfRbx1 (natural protein, P. falciparum, UniProt O77367 1-107, looked up)
chain: T1 sequence
notes: P. falciparum Rbx1 (PfRbx1, PF3D7_0319100), complete coding region, subcloned into pSMO; also called HisSUMO/Rbx; HisSUMO/PfRbx1; source: E. coli Rosetta-gami 2(DE3) pLysS, purified (Ni-NTA, native conditions); not shown: His6, N-terminal, kept; SUMO, N-terminal, kept

Legend:
[1] = target: T1, PfRbx1 with C-terminal Myc-tag (P. falciparum); assay: co-IP; equal amounts of PfRbx1myc-epi and PfCul2KDD10 parasite lysates mixed, supplemented with 2 mM ATP, 5 mM MgCl2 and 0.2 mM DTT, 2 h at room temperature; Myc-Trap immunoprecipitation; blot with anti-Myc, then anti-HA
[2] = target: T2, 6×His-tagged PfSkp1 (P. falciparum), …; assay: far-Western, overlay or dot blot; dot blot protein overlay: different amounts of HisSkp, HisSUMO/Rbx or HisSUMO spotted on nitrocellulose, blocked (3% BSA in PBS-T), overlaid with 10 μg of GST or GST-tagged protein for 12 h at 4°C, detected with anti-GST antibodies; both purified; details: remark: other sources report otherwise

Row | Molecule | binding [1] | binding [2]
1 | PfCullin-2/cDDHA (from UniProt C6KTD3 1-1129) | binds | –
2 | B1 | – | no binding (tested: 10 μg overlaid)
